Test results: paper PMC10686484
Construct, isoform or probe ends are uncertain for at least one entry. The comparison behind a weaker result is the experiment's own reference, which may not be listed here.

By UniProt entry, the sequences of proteins in these tests, tags left out. Where a name states a change or a piece, a line headed by the entry shows the natural chain unless it says otherwise.
UniProt O88554: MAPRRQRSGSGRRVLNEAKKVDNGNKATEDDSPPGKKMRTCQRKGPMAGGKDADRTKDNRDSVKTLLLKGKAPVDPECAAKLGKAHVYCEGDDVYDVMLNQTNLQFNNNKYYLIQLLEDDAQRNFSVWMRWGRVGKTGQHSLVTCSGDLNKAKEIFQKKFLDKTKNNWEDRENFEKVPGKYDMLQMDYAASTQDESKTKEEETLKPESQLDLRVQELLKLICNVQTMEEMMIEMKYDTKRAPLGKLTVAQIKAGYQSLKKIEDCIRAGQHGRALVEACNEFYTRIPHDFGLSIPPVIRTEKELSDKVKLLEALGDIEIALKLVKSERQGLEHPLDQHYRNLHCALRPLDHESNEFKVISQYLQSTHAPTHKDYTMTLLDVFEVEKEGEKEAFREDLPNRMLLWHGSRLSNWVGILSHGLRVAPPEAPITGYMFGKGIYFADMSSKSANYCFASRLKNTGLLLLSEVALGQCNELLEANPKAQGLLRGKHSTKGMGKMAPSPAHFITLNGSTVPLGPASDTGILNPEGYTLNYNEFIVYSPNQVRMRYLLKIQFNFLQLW
UniProt P09874, whole entry: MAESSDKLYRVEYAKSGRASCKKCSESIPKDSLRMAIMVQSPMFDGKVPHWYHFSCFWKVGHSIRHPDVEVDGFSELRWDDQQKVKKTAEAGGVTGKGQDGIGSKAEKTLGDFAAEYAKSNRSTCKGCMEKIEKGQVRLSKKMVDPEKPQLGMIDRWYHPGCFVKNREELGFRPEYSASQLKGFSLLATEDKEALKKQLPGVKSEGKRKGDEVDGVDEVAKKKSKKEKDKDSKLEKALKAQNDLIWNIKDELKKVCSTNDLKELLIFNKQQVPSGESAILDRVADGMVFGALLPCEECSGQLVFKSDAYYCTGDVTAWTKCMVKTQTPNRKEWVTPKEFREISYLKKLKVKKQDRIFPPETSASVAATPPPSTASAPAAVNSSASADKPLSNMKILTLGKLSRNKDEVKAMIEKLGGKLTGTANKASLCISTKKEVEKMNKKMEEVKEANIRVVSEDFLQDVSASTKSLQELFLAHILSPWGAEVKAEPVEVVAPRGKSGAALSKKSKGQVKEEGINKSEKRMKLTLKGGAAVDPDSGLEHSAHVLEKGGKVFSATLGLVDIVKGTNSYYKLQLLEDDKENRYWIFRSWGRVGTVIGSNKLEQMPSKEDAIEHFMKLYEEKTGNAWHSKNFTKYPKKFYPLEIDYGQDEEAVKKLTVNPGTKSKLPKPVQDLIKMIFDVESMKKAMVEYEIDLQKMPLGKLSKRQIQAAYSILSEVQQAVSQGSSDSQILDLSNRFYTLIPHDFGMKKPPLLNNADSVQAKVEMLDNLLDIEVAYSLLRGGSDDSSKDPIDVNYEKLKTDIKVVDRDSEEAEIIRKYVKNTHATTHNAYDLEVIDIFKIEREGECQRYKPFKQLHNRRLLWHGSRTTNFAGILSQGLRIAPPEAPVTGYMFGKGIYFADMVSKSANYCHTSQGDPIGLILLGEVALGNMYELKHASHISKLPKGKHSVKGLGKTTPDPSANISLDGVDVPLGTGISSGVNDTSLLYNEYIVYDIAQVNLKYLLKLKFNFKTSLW

Experiments:
PARP2 (murine) = PARP2 (murine) (UniProt O88554); test: EMSA; conditions: 500 uM NAD+ (automodified PARP2); EMSA: 50 mM Tris-HCl pH 7.5, 100 mM NaCl, 1 mM DTT, 0.1 mg/ml BSA (oligo dsDNA only), 10 mM MgCl2 if indicated (always for plasmid), 4 C, 30 min; recombinant protein; label: 5'-32P on DNA2 (target strand)
PARP1 (human) = PARP1 (human) (UniProt P09874); test: EMSA; conditions: 500 uM NAD+ (automodified PARP1); EMSA: 50 mM Tris-HCl pH 7.5, 100 mM NaCl, 1 mM DTT, 0.1 mg/ml BSA (oligo dsDNA only), 10 mM MgCl2 if indicated (always for plasmid), 4 C, 30 min; recombinant protein; label: 5'-32P on DNA2 (target strand)

Question: Does “CTGATAACTCAATTTGTAAAAAATGGTACTGAGCA (double strand) [dsDNA1/2*]” bind (PARP2 (murine))?
Answer: binds more weakly

Question: Does “CTGATAACTCAATTTGTAAAAAATGGTACTGAGCA (double strand) [dsDNA1/2*]” bind (PARP1 (human))?
Answer: binds more weakly
